Entries after “also recorded” stand apart in the source; their conditions may differ.
Key:
epiblast spheroids = assay: Permeability assay with fluorescent compounds in epiblast spheroids; assay type: cell-based, human; conditions: for accumulation in epiblast spheroid cavities: added to the culture media for 2-4 hours; for accumulation in lumens of PODXL−/− hESC spheroids: added to the media, four hours
tubular organoids = assay: Transport of fluorescent cargoes in tubular organoids; assay type: cell-based, human; conditions: for accumulation and retention in kidney organoid tubules: pulse incubation followed by washout chase
Experimental: (§1) To test permeability, media was supplemented with 20 mM HEPES plus Lucifer Yellow™ carbohydrazide potassium salt (Invitrogen, 38 μM) and Rhodamine-8 isothiocyanate dextran (Sigma, 0.5 μM), and imaged by confocal microscopy. For microinjection, 5 μM rhodamine-conjugated dextran solution in mTeSR1 was diluted 1:1 with Phenol Red Solution (0.5%, Sigma) for visualization. 2 nl was microinjected via a pulled glass capillary microneedle on a Nanoject-2 micromanipulator, and monitored in real-time by wide-field epifluorescence. For TEER, 50,000 hPSCs were plated on 24-well transwell plates (Corning) pre-coated with dilute […]™. The media was gently exchanged for 10 days until cells were completely confluent. TEER was measured using an EVOM 2™ device (World Precision Instruments).
as §1, with “Rhodamine-B” for “Rhodamine-8”, “0.5” for “0.5 μM),”, “5” for “5 μM”

Compound: NNC(=O)NN1C(=O)c2cc(S(=O)(=O)[O-])cc3c(N)c(S(=O)(=O)[O-])cc(c23)C1=O.[K+].[K+] [Lucifer yellow, Lucifer Yellow™ carbohydrazide potassium salt]
- accumulation in epiblast spheroid cavities (epiblast spheroids): gradually accumulated within cavities
- accumulation in lumens of PODXL−/− hESC spheroids (epiblast spheroids): accumulated within these small lumens

Compound: Rhodamine-B isothiocyanate dextran [RD]
- distribution relative to LRP2/megalin tubular segments (tubular organoids; fixation and co-localization): enriched in tubular segments lacking LRP2/megalin
- accumulation and retention in kidney organoid tubules (tubular organoids): remained associated during a 24-hour washout chase
- accumulation in epiblast spheroid cavities (epiblast spheroids): excluded from lumens
- accumulation in lumens of PODXL−/− hESC spheroids (epiblast spheroids): excluded from lumens
- persistence in cavity after microinjection (epiblast spheroids; microinjected into the spheroid cavity): remained detectable for hours

Compound: fluorescein methotrexate [MTX]
- accumulation and retention in kidney organoid tubules (tubular organoids): accumulated brightly in kidney tubules
- accumulation in epiblast spheroid cavities (epiblast spheroids): not similarly enriched in hPSC spheroid cavities; also recorded: did not accumulate in hPSC lumens
